These are yes or no findings as the source states them, for the method shown. Some entries that bind do so weakly or less than the wild type.
Biological target: T1, Hse1 GAT domain tethered to the C-terminal CAT fragment (Hse1-cCAT) (yeast) (UniProt P38753)
T1 sequence: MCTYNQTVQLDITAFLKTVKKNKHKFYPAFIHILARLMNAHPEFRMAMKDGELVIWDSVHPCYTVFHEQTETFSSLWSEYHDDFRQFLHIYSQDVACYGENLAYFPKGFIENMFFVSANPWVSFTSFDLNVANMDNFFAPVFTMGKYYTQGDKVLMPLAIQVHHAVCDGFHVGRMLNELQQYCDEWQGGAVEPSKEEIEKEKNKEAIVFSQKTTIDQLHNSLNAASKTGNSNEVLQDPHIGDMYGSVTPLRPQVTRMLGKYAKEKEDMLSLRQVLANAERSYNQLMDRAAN
Assay: split-CAT bacterial growth selection on chloramphenicol

binding: binds
B1: Vps27 GAT domain tethered to the N-terminal CAT fragment (Vps27-nCAT), wild type (protein, yeast, not shown: small tags and cut ends)
chain: IHSVDLSDEEKDSIYMFASLVEKMKSRPLNEILEDSKLQNLAQRVFASKARLNYALNDKAQKYNTLIEMNGKISEIMNIYDRLLEQQLQSINLSQQMEKKITGYTTVDISQWHRKEHFEAFQSVAQ
